From the supplement of paper PMC12823440, “Inhibitors supercharge kinase turnover through native proteolytic circuits” (Nature, 2025)
This is one part of the list. Hit calls seldom repeat between salt and free forms of one compound.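 Kinases were expressed as nanoluciferase fusions in K562 cells and luminescence was read every 4 h between 2 and 18 h as percent of control, DMSO set to 100% and a positive control to 0%. A time point counts as decreased when the signal drops significantly (2 sigma). The hit call is the authors' own, does not follow from the count of time points alone, and its rule is not shown.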

Amino acid sequences for entries named in this document (tags omitted). A change or cut given only in a name is not applied to a line headed by its entry.
UniProt Q9UBF8: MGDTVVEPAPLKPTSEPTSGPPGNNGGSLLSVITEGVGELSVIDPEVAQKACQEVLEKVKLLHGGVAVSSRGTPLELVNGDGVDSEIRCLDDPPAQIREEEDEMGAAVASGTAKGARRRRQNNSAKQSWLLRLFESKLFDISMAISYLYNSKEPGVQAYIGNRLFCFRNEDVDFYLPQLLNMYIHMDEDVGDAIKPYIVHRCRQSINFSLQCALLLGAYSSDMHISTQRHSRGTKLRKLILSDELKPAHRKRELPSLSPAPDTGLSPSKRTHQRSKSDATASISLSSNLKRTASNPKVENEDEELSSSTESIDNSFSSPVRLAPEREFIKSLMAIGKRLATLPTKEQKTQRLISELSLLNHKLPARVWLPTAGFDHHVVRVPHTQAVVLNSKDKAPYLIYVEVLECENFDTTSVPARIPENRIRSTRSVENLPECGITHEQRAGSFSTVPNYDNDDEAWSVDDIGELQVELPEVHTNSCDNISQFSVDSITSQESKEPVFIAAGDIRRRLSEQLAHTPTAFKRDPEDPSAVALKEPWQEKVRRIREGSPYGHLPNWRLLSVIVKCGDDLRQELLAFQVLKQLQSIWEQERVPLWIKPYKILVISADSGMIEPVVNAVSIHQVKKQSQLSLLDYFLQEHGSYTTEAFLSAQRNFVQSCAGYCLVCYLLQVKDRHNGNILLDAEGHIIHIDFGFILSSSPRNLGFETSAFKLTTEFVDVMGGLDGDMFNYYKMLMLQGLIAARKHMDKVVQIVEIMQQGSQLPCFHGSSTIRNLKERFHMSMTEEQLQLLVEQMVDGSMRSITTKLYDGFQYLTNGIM
UniProt P53350, whole entry: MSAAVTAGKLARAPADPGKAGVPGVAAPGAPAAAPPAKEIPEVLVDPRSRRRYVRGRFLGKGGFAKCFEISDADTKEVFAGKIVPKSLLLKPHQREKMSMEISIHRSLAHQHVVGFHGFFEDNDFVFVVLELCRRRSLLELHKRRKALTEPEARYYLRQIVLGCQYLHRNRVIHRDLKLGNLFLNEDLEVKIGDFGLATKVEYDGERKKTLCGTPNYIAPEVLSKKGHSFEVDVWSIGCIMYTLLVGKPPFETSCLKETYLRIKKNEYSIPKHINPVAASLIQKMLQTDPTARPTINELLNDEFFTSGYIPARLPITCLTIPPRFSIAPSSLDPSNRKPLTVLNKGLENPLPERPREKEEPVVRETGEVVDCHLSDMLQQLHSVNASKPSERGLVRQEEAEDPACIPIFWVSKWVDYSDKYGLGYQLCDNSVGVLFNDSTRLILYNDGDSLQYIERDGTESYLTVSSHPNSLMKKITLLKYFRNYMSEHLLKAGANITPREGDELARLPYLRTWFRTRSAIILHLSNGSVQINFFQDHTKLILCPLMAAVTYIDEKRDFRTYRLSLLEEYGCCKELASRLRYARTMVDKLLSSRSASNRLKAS
UniProt Q14289, whole entry, looked up: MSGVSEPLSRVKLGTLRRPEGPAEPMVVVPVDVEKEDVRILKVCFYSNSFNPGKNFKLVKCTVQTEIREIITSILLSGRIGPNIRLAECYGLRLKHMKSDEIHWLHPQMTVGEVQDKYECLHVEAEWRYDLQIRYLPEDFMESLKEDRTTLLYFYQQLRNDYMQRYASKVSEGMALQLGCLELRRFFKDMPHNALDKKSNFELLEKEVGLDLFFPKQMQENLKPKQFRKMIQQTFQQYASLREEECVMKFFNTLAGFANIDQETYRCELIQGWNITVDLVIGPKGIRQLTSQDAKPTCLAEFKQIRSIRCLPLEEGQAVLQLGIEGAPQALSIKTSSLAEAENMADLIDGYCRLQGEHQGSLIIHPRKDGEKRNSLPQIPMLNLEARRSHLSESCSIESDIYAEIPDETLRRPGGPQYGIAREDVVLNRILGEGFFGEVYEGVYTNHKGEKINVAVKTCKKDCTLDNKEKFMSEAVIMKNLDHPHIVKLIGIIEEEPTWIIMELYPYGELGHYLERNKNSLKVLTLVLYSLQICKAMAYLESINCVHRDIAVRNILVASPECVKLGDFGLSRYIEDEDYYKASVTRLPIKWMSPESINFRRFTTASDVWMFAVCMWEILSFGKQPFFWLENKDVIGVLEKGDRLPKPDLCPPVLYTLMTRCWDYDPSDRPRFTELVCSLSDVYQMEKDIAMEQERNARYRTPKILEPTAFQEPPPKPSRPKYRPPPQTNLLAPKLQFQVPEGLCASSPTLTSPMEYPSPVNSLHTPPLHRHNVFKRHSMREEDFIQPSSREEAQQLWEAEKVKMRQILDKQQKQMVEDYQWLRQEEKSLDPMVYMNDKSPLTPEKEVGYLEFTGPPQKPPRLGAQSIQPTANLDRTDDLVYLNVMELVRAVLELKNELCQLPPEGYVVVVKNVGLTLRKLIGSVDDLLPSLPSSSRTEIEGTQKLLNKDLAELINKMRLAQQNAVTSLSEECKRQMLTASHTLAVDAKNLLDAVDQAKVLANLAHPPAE
UniProt Q9BRS2: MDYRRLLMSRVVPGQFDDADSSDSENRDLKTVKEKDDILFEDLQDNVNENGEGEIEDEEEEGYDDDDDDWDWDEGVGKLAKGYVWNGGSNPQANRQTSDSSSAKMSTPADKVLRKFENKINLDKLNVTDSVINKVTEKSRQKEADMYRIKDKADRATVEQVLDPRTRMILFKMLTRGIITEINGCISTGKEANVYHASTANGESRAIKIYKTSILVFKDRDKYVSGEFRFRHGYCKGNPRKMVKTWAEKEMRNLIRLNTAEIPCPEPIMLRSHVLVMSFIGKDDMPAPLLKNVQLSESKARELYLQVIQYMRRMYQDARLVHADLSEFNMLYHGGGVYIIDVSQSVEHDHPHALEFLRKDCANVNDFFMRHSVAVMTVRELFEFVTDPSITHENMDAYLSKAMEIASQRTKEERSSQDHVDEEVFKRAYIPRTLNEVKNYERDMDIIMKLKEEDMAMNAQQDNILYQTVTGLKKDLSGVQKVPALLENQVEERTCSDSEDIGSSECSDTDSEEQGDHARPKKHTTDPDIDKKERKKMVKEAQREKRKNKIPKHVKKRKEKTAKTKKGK
UniProt Q13546: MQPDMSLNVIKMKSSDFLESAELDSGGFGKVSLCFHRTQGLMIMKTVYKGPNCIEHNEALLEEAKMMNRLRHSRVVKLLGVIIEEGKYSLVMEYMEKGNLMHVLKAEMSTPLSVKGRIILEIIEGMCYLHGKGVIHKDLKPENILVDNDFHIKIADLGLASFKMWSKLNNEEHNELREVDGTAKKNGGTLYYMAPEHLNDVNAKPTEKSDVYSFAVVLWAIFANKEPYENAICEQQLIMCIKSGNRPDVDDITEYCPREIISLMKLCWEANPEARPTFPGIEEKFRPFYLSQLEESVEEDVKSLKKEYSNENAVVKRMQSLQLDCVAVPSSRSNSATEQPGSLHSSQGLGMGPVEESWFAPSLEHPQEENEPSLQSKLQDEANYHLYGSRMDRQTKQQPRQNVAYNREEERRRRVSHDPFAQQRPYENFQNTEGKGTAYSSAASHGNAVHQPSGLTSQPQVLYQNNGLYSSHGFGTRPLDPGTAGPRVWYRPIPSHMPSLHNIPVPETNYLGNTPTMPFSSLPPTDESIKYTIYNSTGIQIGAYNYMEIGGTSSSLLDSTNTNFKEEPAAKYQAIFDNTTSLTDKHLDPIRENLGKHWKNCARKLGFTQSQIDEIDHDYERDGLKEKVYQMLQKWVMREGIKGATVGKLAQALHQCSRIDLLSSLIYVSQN
UniProt Q01974, whole entry: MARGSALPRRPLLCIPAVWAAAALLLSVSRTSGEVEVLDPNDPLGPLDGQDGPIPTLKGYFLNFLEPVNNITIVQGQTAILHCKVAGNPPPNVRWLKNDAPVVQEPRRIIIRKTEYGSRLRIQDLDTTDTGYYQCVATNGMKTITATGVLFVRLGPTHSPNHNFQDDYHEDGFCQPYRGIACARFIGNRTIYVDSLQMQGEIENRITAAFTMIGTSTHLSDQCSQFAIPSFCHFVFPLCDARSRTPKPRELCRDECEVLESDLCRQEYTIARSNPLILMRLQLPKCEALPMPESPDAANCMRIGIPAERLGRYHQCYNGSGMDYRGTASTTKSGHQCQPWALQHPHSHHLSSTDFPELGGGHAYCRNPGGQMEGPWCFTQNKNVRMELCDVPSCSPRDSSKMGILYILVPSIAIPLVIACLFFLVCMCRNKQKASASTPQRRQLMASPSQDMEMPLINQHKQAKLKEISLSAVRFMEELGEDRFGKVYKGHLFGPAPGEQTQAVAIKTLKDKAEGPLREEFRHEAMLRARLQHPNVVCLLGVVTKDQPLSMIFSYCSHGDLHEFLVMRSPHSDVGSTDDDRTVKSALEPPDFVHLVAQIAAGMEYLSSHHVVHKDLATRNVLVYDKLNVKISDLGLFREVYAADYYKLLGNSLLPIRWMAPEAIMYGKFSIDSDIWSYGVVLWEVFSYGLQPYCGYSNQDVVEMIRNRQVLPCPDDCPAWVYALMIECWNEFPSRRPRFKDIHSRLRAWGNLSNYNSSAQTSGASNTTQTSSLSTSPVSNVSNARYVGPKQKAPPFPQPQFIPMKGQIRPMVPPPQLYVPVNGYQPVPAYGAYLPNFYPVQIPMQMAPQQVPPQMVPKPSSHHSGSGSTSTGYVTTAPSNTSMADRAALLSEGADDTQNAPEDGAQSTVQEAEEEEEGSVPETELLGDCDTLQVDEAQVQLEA
UniProt Q15418, whole entry: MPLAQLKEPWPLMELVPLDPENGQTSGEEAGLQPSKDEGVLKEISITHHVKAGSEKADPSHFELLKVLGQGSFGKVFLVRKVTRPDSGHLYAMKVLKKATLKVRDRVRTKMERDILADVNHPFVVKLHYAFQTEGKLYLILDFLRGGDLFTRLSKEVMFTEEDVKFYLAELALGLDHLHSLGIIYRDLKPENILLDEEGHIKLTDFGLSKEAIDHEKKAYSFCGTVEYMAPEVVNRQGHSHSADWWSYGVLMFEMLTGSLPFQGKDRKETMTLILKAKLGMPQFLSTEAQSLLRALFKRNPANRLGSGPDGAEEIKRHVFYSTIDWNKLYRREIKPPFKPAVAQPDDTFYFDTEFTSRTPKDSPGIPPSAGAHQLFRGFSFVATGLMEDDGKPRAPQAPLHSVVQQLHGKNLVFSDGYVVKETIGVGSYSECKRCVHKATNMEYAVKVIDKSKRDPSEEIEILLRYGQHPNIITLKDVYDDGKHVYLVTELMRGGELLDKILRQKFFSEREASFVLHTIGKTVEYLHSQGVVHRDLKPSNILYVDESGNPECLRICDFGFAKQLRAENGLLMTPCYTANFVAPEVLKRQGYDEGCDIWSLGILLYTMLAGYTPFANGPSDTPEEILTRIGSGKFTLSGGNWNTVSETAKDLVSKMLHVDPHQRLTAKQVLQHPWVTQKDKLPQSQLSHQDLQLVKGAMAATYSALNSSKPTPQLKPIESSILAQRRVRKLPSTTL
UniProt Q9NYA1, whole entry: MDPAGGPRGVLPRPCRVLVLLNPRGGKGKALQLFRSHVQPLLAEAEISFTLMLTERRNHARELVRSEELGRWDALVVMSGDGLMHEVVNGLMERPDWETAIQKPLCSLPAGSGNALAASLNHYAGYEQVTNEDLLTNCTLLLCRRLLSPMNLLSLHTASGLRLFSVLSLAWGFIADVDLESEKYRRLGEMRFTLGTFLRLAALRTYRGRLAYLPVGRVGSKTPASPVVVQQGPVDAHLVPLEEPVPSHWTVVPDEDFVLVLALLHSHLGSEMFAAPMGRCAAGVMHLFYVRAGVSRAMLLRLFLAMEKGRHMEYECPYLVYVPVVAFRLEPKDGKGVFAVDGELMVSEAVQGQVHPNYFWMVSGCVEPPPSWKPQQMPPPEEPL

Experiments:
Test in all cases: kinase-Nluc reporter destabilization hit call (1 = scored as downregulated) (binary); higher = compound decreases kinase abundance
Details in all cases: K562; 2-18 h
PDPK1 = PDPK1 (UniProt O15530)
PIK4CA = PIK4CA (UniProt P42356)
PIK4CB = PIK4CB (UniProt Q9UBF8)
PLK1 = PLK1 (UniProt P53350)
PRKAA1 = PRKAA1 (UniProt Q13131)
PRKCA = PRKCA (UniProt P17252)
PTK2 = PTK2 (UniProt Q05397)
PTK2B = PTK2B (UniProt Q14289)
RAF1 = RAF1 (UniProt P04049)
[1] = biological target: RAF1_S257L (clone: RAF1_mut) (UniProt P04049)
RET = RET (UniProt P07949)
[2] = biological target: RET_M918T (clone: RET_mut) (UniProt P07949)
RIOK1 = RIOK1 (UniProt Q9BRS2)
RIPK1 = RIPK1 (UniProt Q13546)
RIPK2 = RIPK2 (UniProt O43353)
ROR2 = ROR2 (UniProt Q01974)
RPS6KA1 = RPS6KA1 (UniProt Q15418)
SPHK1 = SPHK1 (UniProt Q9NYA1)
SRC = SRC (UniProt P12931)
STK24 = STK24 (UniProt Q9Y6E0)

Measured: kinase-Nluc reporter destabilization hit call

COc1cc(OC)cc(-c2cc3cnc(N)nc3nc2NC(=O)NC(C)(C)C)c1 (10 µM)
inactive: PDPK1 = 0 | PIK4CA 0 | PIK4CB 0 | PLK1 = 0 | PRKAA1 = 0 | PRKCA 0 | PTK2 = 0 | PTK2B 0 | RAF1 = 0 | [1] 0 | RET 0 | [2] 0 | RIOK1 = 0 | RIPK1 = 0 | RIPK2 = 0 | ROR2 = 0 | RPS6KA1 = 0 | SPHK1 = 0 | SRC 0 | STK24 = 0

COC(=O)c1ccc2c(C(=Nc3ccc(N(C)C(=O)CN4CCN(C)CC4)cc3)c3ccccc3)c(O)[nH]c2c1 [Nintedanib] (2.5 µM)
inactive: PDPK1 = 0 | PIK4CA 0 | PIK4CB 0 | PLK1 = 0 | PRKAA1 = 0 | PRKCA 0 | PTK2 = 0 | PTK2B 0 | RAF1 = 0 | [1] 0 | RET 0 | [2] 0 | RIOK1 = 0 | RIPK1 = 0 | RIPK2 = 0 | ROR2 = 0 | RPS6KA1 = 0 | SPHK1 = 0 | SRC 0 | STK24 = 0

C=CC(=O)Nc1cccc(Nc2nc(Nc3ccc(OCCOC)cc3)ncc2F)c1 [Spebrutinib] (10 µM)
inactive: PDPK1 = 0 | PIK4CA 0 | PIK4CB 0 | PLK1 = 0 | PRKAA1 = 0 | PRKCA 0 | PTK2 = 0 | PTK2B 0 | RAF1 = 0 | [1] 0 | RET 0 | [2] 0 | RIOK1 = 0 | RIPK1 = 0 | RIPK2 = 0 | ROR2 = 0 | RPS6KA1 = 0 | SPHK1 = 0 | SRC 0 | STK24 = 0

N#Cc1ccc2[nH]c(O)c(-c3ccc(CN4CCOCC4)cn3)c2c1 (10 µM)
inactive: PDPK1 = 0 | PIK4CA 0 | PIK4CB 0 | PLK1 = 0 | PRKAA1 = 0 | PRKCA 0 | PTK2 = 0 | PTK2B 0 | RAF1 = 0 | [1] 0 | RET 0 | [2] 0 | RIOK1 = 0 | RIPK1 = 0 | RIPK2 = 0 | ROR2 = 0 | RPS6KA1 = 0 | SPHK1 = 0 | SRC 0 | STK24 = 0
